According to paper PMC5801593 (Frontiers in Molecular Biosciences, 2017):
Results are given in words; binding and its absence hold for the method and conditions named. Some binding calls cover weakened binding; strength is not graded here.

Chains of the proteins cited; added tags and fusions are not shown.
UniProt P0A6B7: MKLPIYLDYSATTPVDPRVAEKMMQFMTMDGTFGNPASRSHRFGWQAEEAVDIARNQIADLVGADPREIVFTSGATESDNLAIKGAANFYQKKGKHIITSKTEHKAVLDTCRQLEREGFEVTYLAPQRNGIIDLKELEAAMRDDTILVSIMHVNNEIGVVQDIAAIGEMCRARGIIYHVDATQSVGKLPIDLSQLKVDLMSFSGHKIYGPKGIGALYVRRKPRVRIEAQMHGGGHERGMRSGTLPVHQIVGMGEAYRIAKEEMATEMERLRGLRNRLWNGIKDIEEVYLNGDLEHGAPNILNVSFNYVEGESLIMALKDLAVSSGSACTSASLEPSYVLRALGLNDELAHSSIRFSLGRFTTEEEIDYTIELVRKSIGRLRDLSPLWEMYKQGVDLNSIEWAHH

Target: T1, cysteine desulfurase IscS (E. coli, UniProt P0A6B7 1-404)
T1 construct: IscS, cysteine desulfurase of E. coli; Dimer by native MS (observed 91,035 Da, predicted 91,037 Da); An adduct of about +304 Da is put down to beta-mercaptoethanol hetero-disulfides; also called wild-type IscS; source: E. coli BL21(DE3), purified (Ni-NTA, TEV cleavage, gel filtration)
Test: cross-linking; mixtures of CyaY and IscS with the same cross-linker (BS3); data not shown; both purified

B1: CyaY (protein, UniProt P27838 1-106)
chain: MNDSEFHRLADQLWLTIEERLDDWDGDSDIDCEINGGVLTITFENGSKIIINRQEPLHQVWLATKQGGYHFDLKGDEWICDRSGETFWDLLEQAATQQAGETVSFR
For B1, the binding was “binds”.
